Patent US20200375945A1, “INHALABLE FORMULATION OF A SOLUTION CONTAINING INDACATEROL MALEATE AND GLYCOPYRRONIUM BROMIDE” (priority 2019, published 2020)
Some entries share one result that the patent states for a list of compounds.

Assay: Aerodynamic particle size distribution on Next Generation Impactor (NGI)
Type: physicochemical
Conditions: sample 2 sprayed with soft mist inhaler, NGI at 30 L/min; listed as indacaterol maleate
Protocol: Sample 2 was sprayed with a soft mist inhaler. Aerodynamic particle size distribution of droplets of sample 2 was measured on Next Generation Impactor (NGI). Next Generation Impactor operated at a flow rate of 30 L/min was used for determination of particle size distribution. For each of the impactor experiments, the impactor collection stages were coated with a silicone oil. The aerodynamic particle size distribution is expressed in terms of mass median aerodynamic diameter (MMAD) and Geometric Standard Deviation (GSD).

Question: For `CCc1cc2c(cc1CC)CC(NC[C@H](O)c1ccc(O)c3[nH]c(=O)ccc13)C2.O=C(O)/C=C\C(=O)O` [Indacaterol maleate, 5-[(R)-2-(5,6-diethyl-indan-2-ylamino)-1-hydroxy-ethyl]-8-hydroxy-(1H)-quinolin-2-one], which “MMAD (mass median aerodynamic diameter)” value is on record?
Answer: less than 10 μm
